Read-outs that look alike come from different tables or passages of the source. Results are given in words; binding and its absence hold for the method and conditions named. For some of these results: Binding can be weak; no strength is given. For some of these results: Tags and fused reporters may be left off the sequences shown. For some of these results: Binding seen in cells or lysates may run through a third protein. Blank lines part the entries; values can stand above or below the molecule they belong to.
Legend:
FL FRS2 GST fusion = biological target: T1, FL FRS2 GST fusion (UniProt Q8WU20); assay: pull-down; competition: purified FRS2-GST on beads, lysates of HeLa cells transfected with increasing amounts of FGFR-myc (0.5-2 µg DNA; empty pcDNA3 as control); blot for endogenous flot-1; only the target purified
T1 sequence: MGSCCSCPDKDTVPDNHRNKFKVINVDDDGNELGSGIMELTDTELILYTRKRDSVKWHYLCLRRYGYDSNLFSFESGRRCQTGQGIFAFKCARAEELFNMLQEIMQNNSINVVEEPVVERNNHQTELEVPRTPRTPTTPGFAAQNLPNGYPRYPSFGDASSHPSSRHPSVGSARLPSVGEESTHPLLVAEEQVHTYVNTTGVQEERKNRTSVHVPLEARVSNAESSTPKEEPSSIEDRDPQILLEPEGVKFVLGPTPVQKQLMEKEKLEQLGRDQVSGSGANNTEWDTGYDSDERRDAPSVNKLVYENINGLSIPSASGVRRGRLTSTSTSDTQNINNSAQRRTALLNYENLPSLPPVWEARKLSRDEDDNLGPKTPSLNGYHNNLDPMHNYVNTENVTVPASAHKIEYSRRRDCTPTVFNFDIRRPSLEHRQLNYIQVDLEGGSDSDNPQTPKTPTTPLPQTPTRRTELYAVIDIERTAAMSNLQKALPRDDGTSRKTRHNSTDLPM

[1] = biological target: T2, flotillin-2/reggie-1, two-hybrid fusion (UniProt Q9Z2S9); assay: two-hybrid; pairwise cotransformation of bait and prey in yeast AH109 (Matchmaker GAL4 Two-Hybrid System 3); growth of blue colonies on SD/-Ade/-His/-Leu/-Trp/X-α-gal plates, photographed after 3 days
T2 sequence: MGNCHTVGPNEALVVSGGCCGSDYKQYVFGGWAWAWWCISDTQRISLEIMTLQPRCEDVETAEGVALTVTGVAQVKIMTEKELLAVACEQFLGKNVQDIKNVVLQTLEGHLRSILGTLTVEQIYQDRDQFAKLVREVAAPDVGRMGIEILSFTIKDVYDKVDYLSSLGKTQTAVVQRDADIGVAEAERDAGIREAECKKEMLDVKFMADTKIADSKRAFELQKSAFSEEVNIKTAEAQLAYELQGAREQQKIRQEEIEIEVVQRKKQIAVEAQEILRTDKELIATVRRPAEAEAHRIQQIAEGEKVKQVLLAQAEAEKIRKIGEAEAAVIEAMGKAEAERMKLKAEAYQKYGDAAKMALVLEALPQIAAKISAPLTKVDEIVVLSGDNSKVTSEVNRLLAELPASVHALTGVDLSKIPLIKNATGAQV

[2] = biological target: T3, Full-length (FL) flotillin-1/reggie-2, two-hybrid bait in pGBKT7 (rat) (UniProt Q9Z1E1); assay: as above
T3 sequence: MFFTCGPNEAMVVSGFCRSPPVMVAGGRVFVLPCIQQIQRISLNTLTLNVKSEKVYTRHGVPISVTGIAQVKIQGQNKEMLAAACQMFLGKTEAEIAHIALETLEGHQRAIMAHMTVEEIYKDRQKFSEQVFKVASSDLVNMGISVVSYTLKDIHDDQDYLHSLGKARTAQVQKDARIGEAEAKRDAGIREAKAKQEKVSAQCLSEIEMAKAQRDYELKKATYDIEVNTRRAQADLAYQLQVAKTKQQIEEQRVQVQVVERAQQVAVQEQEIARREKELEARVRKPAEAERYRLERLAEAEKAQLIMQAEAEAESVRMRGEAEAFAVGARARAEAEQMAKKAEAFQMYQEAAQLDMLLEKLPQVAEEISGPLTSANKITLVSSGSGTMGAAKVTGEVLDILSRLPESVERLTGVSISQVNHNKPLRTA

[3] = biological target: Flot-1-STOP328, deletion mutant of flot-1 missing 100 amino acids from the C-terminal end (rat) (UniProt Q9Z1E1); assay: as above
[4] = biological target: Flot-1-STOP328, deletion mutant of flot-1 missing 100 amino acids from the C-terminal end (rat) (UniProt Q9Z1E1); assay: as above; remark: listed apart in the source
[5] = biological target: FL Cbl-associated protein/ponsin, two-hybrid fusion (mouse); assay: as above
[6] = biological target: sorbin homology (SoHo) domain of CAP, two-hybrid fusion SoHo-BD (mouse); assay: as above
[7] = biological target: first SH3 domain of CAP, GST fusion (mouse); assay: pull-down; GST fusion immobilised on sepharose beads, purified FRS2-His in solution; 5 µg of the purified proteins, on ice 3 h; wash 50 mM Tris-HCl pH 7.5, 150 mM NaCl, 1 mM EDTA, 1 mM DTT, 0.01% Triton X-100; anti-His blot; both purified
[8] = biological target: third SH3 domain of CAP (SH3C), GST fusion (mouse); assay: as above
[9] = biological target: full length CAP-GST (mouse); assay: as above
[10] = biological target: CAP mutant lacking the SoHo domain, GST fusion (mouse); assay: as above
[11] = biological target: SoHo-GST (sorbin homology domain of CAP) (mouse); assay: as above
[12] = biological target: second SH3 domain of CAP, GST fusion (mouse); assay: as above
[13] = biological target: full length CAP-GST (mouse); assay: pull-down; competition: CAP-GST on sepharose, HeLa cell lysates in the presence of increasing amounts (1-5 µg) of purified FRS2-His; blot for endogenous flot-1; only the target purified
[14] = biological target: FRS2 CT domain GST fusion (UniProt Q8WU20); assay: pull-down; GST-FRS2 fusions immobilised on glutathione-sepharose beads, incubated with HeLa cell lysate (50 mM Tris pH 7.4, 0.15 M NaCl, 2 mM EDTA, 1% NP-40) over night at 4°C; blot for endogenous flot-1; only the target purified
[15] = biological target: FRS2 PTB domain GST fusion (UniProt Q8WU20); assay: as above

binding (FL FRS2 GST fusion): binds
Molecule: myc-tagged FGF receptor

binding [1]: no binding | binding [2]: binds | binding [3]: no binding
Molecule: PTB domain of FRS2 in pGADT7 (from UniProt Q8WU20) (domain or fragment)

binding [4]: no binding | binding [5]: binds | binding [6]: no binding
B1: Full-length (FL) fibroblast growth factor receptor substrate 2 in pGADT7 (protein, UniProt Q8WU20 1-508)
chain: T1 sequence

binding [7]: no binding | binding [8]: binds | binding [9]: binds | binding [10]: binds | binding [11]: binds | binding [12]: no binding
B2: FRS2-His (protein)
chain: T1 sequence

binding [13]: binds | binding [14]: binds | binding [15]: binds
B3: endogenous flotillin-1 from HeLa cell lysates (protein, UniProt O75955 1-427)
chain: MFFTCGPNEAMVVSGFCRSPPVMVAGGRVFVLPCIQQIQRISLNTLTLNVKSEKVYTRHGVPISVTGIAQVKIQGQNKEMLAAACQMFLGKTEAEIAHIALETLEGHQRAIMAHMTVEEIYKDRQKFSEQVFKVASSDLVNMGISVVSYTLKDIHDDQDYLHSLGKARTAQVQKDARIGEAEAKRDAGIREAKAKQEKVSAQYLSEIEMAKAQRDYELKKAAYDIEVNTRRAQADLAYQLQVAKTKQQIEEQRVQVQVVERAQQVAVQEQEIARREKELEARVRKPAEAERYKLERLAEAEKSQLIMQAEAEAASVRMRGEAEAFAIGARARAEAEQMAKKAEAFQLYQEAAQLDMLLEKLPQVAEEISGPLTSANKITLVSSGSGTMGAAKVTGEVLDILTRLPESVERLTGVSISQVNHKPLRTA

— paper PMC3250484, “Molecular Networks in FGF Signaling: Flotillin-1 and Cbl-Associated Protein Compete for the Binding to Fibroblast Growth Factor Receptor Substrate 2” (PLoS ONE, 2012)
